Data taken from PubChem BioAssay AID540303 (National Center for Advancing Translational Sciences (NCATS), 2011).
The whole screen tested about 330,000 compounds, of which about 1,000 (0.3%) were called active. The shares of active, inactive and inconclusive entries below differ from those in the screen. Calls follow the shape of the dose curve; as a rule, active = well fitted inhibition curve with a large enough effect; inconclusive = small, poorly fitted or top-dose-only effect; inactive = no such curve, though single readings can be large or run the other way; tested in mouse RAW 264.7 cells. Potencies beside an inconclusive call are fits to weak or partial responses and may not hold up.

assay: qHTS for Inhibitors of Cell Surface uPA Generation; conditions: cell surface uPA generation assay; series mostly up to 38.3 µM; activity change, negative = inhibition: at the top concentration; also: nearly all actives have a fitted effect of over 55% in size
In short: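 Using RAW 264.7 macrophages, the screen measures whether compounds keep cellular ATP up by preventing uPA-driven LF translocation. Treatment lasted 24 h at 37 C, with a final top concentration of 38.3 uM, and luminescence was the readout.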
% is scaled to controls: 0 for no effect and ±100 for the full control effect; potency is read from the fitted curve at half-maximal effect.

Compound | activity change, negative = inhibition | Potency
COc1ccc(-c2cnc(SCC(=O)Nc3nc(C(C)(C)C)cs3)n2Cc2ccco2)cc1 | inactive: -2.84% | –
Cc1cc(=O)c(C(=O)Nc2cccc(C(=O)NC3CC3)c2)nn1-c1ccccc1Cl | – | inconclusive: 11.2 µM [inhibitor, partial curve, poor fit]
CC(=O)N1CCC2(CC1)C/C(=N\NC(=S)Nc1ccccc1C)c1cc(O)ccc1O2 | inactive: 7.73% | –
CSc1ccc(C2C(C#N)=C(N)Oc3cc4c(cc32)OCO4)cc1 (stereo not drawn) | – | inconclusive: 3.98 µM [inhibitor, single point]
COc1cc(OC)c(OC)cc1CNC(=O)c1cccc(S(=O)(=O)N2CCc3ccccc3C2)c1 | – | inconclusive: 12.6 µM [inhibitor, single point]
Cc1cc(N2CCN(S(=O)(=O)c3ccccc3)CC2)nc2c(C)cccc12 | inactive: 1.41% | –
Cc1ccc(Cn2cc(C(=O)NN)c(=O)c3ccc(F)cc32)cc1 | – | inconclusive: 12.6 µM [inhibitor, single point]
OCCCNc1nccc(-c2cc(Nc3cccc(Cl)c3)ncn2)n1 | – | active: 1.58 µM
Clc1ccc(-c2c[n+](Cc3ccc(Cl)cc3Cl)c3n2CCCCC3)cc1 | – | inconclusive: 28.2 µM [inhibitor, single point]
CNc1ccc(Br)cc(C(=O)/C=C/c2cccc(Cl)c2Cl)c1=O | – | inconclusive: 11.2 µM [inhibitor, partial curve, poor fit]
C/C=C/Cn1c(N(C)Cc2ccccc2)nc2c1c(=O)[nH]c(=O)n2C | – | inconclusive: 17.8 µM [inhibitor, partial curve, poor fit]
COc1cccc(NC(=O)CSc2nnc(-c3ccc(C)cc3)o2)c1 | – | inconclusive: 10 µM [inhibitor, partial curve, poor fit]
OCCNCCOc1ccccc1-c1ccccc1 | inactive: 0.762% | –
COc1cccc(NC(=O)c2cc3ccccc3o/c2=N\O)c1 | – | inconclusive: 10 µM [inhibitor, partial curve, poor fit]
CC(CNS(=O)(=O)c1ccc2c(c1)NC(=O)CCS2)c1ccccc1 (stereo not drawn) | – | inconclusive: 0.891 µM [inhibitor, partial curve, poor fit]
CCOc1ccc2[nH]c(=O)c(CN(CC3COCCO3)C(=O)c3ccc(C)cc3)cc2c1 (stereo not drawn) | – | inconclusive: 4.47 µM [inhibitor, single point]
COc1ccc(NC(=O)c2ccc(NC(=O)CN3CCN(c4ccc(O)cc4)CC3)cc2)cc1 | – | inconclusive: 12.6 µM [inhibitor, partial curve]
CCC(CO)Nc1ncnc2c1cnn2-c1ccc(OC)cc1 (stereo not drawn) | – | inconclusive: 10 µM [inhibitor, partial curve]
CC1CCN(c2ccc(-c3cccs3)nn2)CC1 | – | active: 0.891 µM
CC(=O)c1cccc(NC(=O)Cn2cnc(S(=O)(=O)N3CCOCC3)c2)c1 | inactive: -2.19% | –
COc1ccc(C2CC(O)(c3ccccc3)Oc3c(C)ccc(C)c32)cc1 (stereo not drawn) | – | inconclusive: 11.2 µM [inhibitor, single point]
C/C=C(/C)C(=O)O[C@@H]1c2c(ccc3ccc(=O)oc23)O[C@@H]1C(C)(C)OC(=O)/C(C)=C\C | – | inconclusive: 8.91 µM [inhibitor, single point]
COc1ccc(C2=NS(=O)(=O)N(C)C(C(=O)N3CCCCC3)=C2)cc1 | – | inconclusive: 14.1 µM [inhibitor, partial curve, poor fit]

Compound | activity change, negative = inhibition | Potency
CCSc1ncc(Cl)c(C(=O)Nc2ccccc2F)n1 | inactive: -1.16% | –
Cc1ccc2nc(SCC(=O)Nc3cccnc3Cl)[nH]c2c1 | inactive: 2.99% | –
N=c1c2c(n(Cc3ccc(Br)cc3)c3c1CCC3)CCCC2 | – | active: 3.98 µM
CC(C)CC1Nc2ncnc(N3CCN(c4ccccc4)CC3)c2N(Cc2ccccc2)C1=O (stereo not drawn) | – | inconclusive: 8.91 µM [inhibitor, single point]
O=C(N/N=C1\CCCc2c1[nH]c1ccc(Cl)cc21)c1ccncc1 | – | inconclusive: 12.6 µM [inhibitor, single point]
c1ccc(-c2c[n+]3c(n2-c2ccccc2)CCC3)cc1 | – | inconclusive: 12.6 µM [inhibitor, single point]
Cc1ccc(N=Nc2c(N)nn3c(N)c(C#N)c(C)nc23)cc1 | – | inconclusive: 10 µM [inhibitor, partial curve, poor fit]
Cc1ccc2nc(Nc3ccccc3)cc(C)c2c1 | – | inconclusive: 6.31 µM [inhibitor, partial curve, poor fit]
O=C(c1ccc(Cl)c([N+](=O)[O-])c1)N1CCN(c2ccccn2)CC1 | inactive: 4.69% | –
OC(COCCC12CC3CC(CC(C3)C1)C2)CN1CCCC1 (stereo not drawn) | – | inconclusive: 1.78 µM [inhibitor, full curve]
Cc1cc(Nc2ccccc2)n(-c2nc3ccccc3[nH]2)n1 | inactive: -4.84% | –
O=C1c2cc(F)ccc2OC2(CCNCC2)C12CC(c1ccccc1)=NO2 (stereo not drawn) | – | inconclusive: 10 µM [inhibitor, partial curve]
Cc1ccc(CNCc2cccnc2)s1 | – | inconclusive: 8.91 µM [inhibitor, partial curve, poor fit]
CN(C)S(=O)(=O)c1ccc(NC(=O)CSc2nnc(-c3ccco3)o2)cc1 | – | inconclusive: 10 µM [inhibitor, single point]
Cc1sc(NC(=O)c2ccc(=O)n(C)n2)nc1-c1ccccc1 | inactive: -4.99% | –
CC(NS(=O)(=O)c1cccc(Cl)c1)C(=O)Nc1ccc(-c2nc3ccccc3s2)cc1 (stereo not drawn) | inactive: -9.15% | –
O=C(NC1CCCCC1)c1ccc(CS(=O)(=O)c2ccc(Cl)cc2)o1 | – | inconclusive: 11.2 µM [inhibitor, single point]
CCc1nc(OCc2ccco2)c2sc3nc4c(cc3c2n1)COC(C)(C)C4 | inactive: -2.88% | –
O=C(NCC1CCCO1)c1onc(CSc2ccccc2)c1C(=O)O (stereo not drawn) | inactive: -5.87% | –
C=CCn1c(=O)c2ccccc2n2c(SCC(=O)Nc3sc(C)c(CC)c3C(=O)OCC)nnc12 | inactive: 1.87% | –
CCOC(=O)N1CCN(Cc2nc3cc(NC(=O)c4cccs4)ccc3n2CC)CC1 | – | inconclusive: 11.2 µM [inhibitor, single point]
Cc1ccc(C2c3[nH]c4ccccc4c3C[C@H]3C(=O)N(c4ccccc4C(=O)NCCCN4CCOCC4)C(=O)N23)cc1 (stereo partly drawn) | – | inconclusive: 10 µM [inhibitor, partial curve, poor fit]
CC(=O)CSc1nc2ccc(Nc3nc(N4CCOCC4)nc(N4CCOCC4)n3)cc2s1 | inactive: -9.45% | –

Rewritten field by field: 4 of the compounds above
Cc1ccc(Cn2cc(C(=O)NN)c(=O)c3ccc(F)cc32)cc1
  Potency: inconclusive: 12.6 µM [inhibitor, single point]
OCCCNc1nccc(-c2cc(Nc3cccc(Cl)c3)ncn2)n1
  Potency: active: 1.58 µM
Clc1ccc(-c2c[n+](Cc3ccc(Cl)cc3Cl)c3n2CCCCC3)cc1
  Potency: inconclusive: 28.2 µM [inhibitor, single point]
CNc1ccc(Br)cc(C(=O)/C=C/c2cccc(Cl)c2Cl)c1=O
  Potency: inconclusive: 11.2 µM [inhibitor, partial curve, poor fit]

(listing goes on)

Compound | activity change, negative = inhibition | Potency
N#C/C(=C1/C(=O)Nc2ccc(Br)cc21)c1ccccn1 | – | inconclusive: 1 µM [inhibitor, full curve, poor fit]
COc1ccc(/C=C/C(=O)c2ccc(OC)cc2OC)cc1 | – | inconclusive: 11.2 µM [inhibitor, partial curve, poor fit]
CCCN1CCC(=O)N([C@H](CSc2ccccc2)c2ccccc2)CC1 | – | inconclusive: 11.2 µM [inhibitor, partial curve, poor fit]
COc1ccc(N/N=C/c2c(C(=O)O)ccc3ccccc23)cc1 | – | active: 10 µM
N/C(=N\OC(=O)N1CCOCC1)c1ccc(Br)cc1 | – | active: 10 µM
CCOc1ccc(C(=O)CN2CCN(S(=O)(=O)c3ccc(OC)cc3)CC2)cc1 | inactive: -9.53% | –
Cc1ccc2oc(C(=O)N(C)Cc3ccon3)c(C)c2c1 | – | inconclusive: 4.47 µM [inhibitor, partial curve, poor fit]
C/C=C(/C)C(=O)Nc1cccc(C2=NOC3(C2)C[C@H](C(N)=O)N(C(=O)c2ccc(Cl)cc2)C3)c1 (stereo partly drawn) | inactive: 4.88% | –
Cc1ccc2sc(N(CCN(C)C)C(=O)c3ccc4ccccc4c3)nc2c1C | – | inconclusive: 0.501 µM [inhibitor, full curve, poor fit]
O=c1cc(C(F)(F)F)[nH]c2c(C(F)(F)F)cccc12 | – | inconclusive: 8.91 µM [inhibitor, single point]
COc1ccc(Oc2cc(Cl)nc(N)n2)cc1 | – | inconclusive: 5.01 µM [inhibitor, partial curve, poor fit]
CCOc1ccc(-c2cc(CCCC(=O)NCc3ccc(C)cc3)no2)cc1 | inactive: -8.54% | –
C=CCC1(CC=C)CCCN1C(=O)C1CCC(=O)N(CCc2ccc(Cl)cc2)C1 (stereo not drawn) | – | inconclusive: 28.2 µM [inhibitor, single point]
CN1CCC[C@@H]1CCO[C@](C)(c1ccccc1)c1ccc(Cl)cc1 | – | inconclusive: 12.6 µM [inhibitor, single point]
CCNc1nc(NC(C)(C)C)nc(N(CC)n2cnnc2)n1 | inactive: -8.54% | –
Cc1cccc(N/C=C/C(=O)c2ccc(Cl)cc2)c1 | – | inconclusive: 3.16 µM [inhibitor, partial curve, poor fit]
COc1cccc(-c2onc3ccc(C(C)=O)cc23)c1 | – | inconclusive: 10 µM [inhibitor, partial curve, poor fit]
Cc1ccccc1C(=O)Nc1ccccc1C(=O)NC1CC1 | inactive: -3.13% | –
CCCCOC(=O)Nc1ccc(S(=O)(=O)Nc2onc(C)c2C)cc1 | inactive: -4.25% | –
COc1ccc(COc2cc(-c3cccc(OC)c3)nc3ccc(NC(=O)c4ccc(C)cc4)cc23)cc1 | – | inconclusive: 28.2 µM [inhibitor, single point]
C[C@H](CO)N1C[C@H](C)[C@@H](CN(C)S(=O)(=O)c2ccc(F)cc2)Oc2ccc(NS(=O)(=O)c3ccc(F)cc3)cc2C1=O | – | inconclusive: 12.6 µM [inhibitor, single point]
Cc1cc(C)c(S(=O)(=O)Nc2c(C)[nH]c(=O)[nH]c2=O)c(C)c1 | – | inconclusive: 10 µM [inhibitor, partial curve, poor fit]
